Laboratory results taken from the supplement of paper PMC10849652.
This is one part of the list. Residues, ends and D or L forms follow the SMILES beside them. *: point of attachment. Cbz = O=C(OCc1ccccc1)*

Amino acid sequences for entries named in this document (tags omitted). A change or cut given only in a name is not applied to a line headed by its entry.
UniProt P15336: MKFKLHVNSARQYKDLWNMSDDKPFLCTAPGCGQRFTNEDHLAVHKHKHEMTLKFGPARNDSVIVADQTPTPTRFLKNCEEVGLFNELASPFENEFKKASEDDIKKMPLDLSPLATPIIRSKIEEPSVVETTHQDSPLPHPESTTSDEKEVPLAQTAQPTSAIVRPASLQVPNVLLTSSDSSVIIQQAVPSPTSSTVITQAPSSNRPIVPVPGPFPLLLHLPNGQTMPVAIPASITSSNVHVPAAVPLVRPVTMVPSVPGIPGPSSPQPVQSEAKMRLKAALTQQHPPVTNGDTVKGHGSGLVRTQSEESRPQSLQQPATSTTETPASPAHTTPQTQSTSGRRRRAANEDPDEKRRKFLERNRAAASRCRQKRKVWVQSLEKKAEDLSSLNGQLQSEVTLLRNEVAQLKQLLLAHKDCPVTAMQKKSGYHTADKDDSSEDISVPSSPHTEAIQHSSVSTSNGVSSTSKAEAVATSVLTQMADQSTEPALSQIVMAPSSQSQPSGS
UniProt O95376: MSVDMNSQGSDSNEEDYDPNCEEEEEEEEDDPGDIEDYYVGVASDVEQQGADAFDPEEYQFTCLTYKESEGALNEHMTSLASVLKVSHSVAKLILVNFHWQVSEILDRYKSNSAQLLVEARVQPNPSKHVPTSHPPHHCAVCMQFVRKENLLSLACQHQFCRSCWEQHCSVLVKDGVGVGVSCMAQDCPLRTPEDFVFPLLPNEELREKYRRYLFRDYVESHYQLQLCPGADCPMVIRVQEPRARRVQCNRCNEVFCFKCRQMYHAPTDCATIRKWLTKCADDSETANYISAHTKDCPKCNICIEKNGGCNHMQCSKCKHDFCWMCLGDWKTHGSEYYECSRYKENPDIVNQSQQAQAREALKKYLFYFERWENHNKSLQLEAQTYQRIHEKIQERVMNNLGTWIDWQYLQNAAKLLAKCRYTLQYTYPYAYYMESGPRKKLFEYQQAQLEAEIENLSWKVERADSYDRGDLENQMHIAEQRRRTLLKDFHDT
UniProt P06576, whole entry, looked up: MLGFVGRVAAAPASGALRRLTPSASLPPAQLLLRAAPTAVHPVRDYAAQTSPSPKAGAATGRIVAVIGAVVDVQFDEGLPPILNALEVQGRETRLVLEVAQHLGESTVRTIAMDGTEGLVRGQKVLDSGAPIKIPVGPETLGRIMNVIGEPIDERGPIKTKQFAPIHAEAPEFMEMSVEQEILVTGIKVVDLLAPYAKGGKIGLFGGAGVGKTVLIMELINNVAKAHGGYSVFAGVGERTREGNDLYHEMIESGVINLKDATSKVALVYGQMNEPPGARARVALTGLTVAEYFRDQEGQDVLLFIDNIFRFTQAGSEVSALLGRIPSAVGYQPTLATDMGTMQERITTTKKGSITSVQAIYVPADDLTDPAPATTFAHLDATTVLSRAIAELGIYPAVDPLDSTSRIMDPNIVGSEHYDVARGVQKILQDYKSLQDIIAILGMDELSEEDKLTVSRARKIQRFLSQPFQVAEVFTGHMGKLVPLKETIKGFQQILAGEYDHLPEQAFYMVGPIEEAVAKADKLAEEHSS
UniProt Q9H1Y0: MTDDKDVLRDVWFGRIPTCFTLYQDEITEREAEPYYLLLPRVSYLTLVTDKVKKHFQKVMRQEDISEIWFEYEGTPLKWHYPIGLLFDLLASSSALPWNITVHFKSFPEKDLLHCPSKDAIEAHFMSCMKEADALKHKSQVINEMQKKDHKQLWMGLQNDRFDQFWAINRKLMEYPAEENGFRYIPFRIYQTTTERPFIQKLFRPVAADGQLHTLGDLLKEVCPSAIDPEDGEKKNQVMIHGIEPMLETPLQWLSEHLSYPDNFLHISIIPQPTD
UniProt L0R819, whole entry, looked up: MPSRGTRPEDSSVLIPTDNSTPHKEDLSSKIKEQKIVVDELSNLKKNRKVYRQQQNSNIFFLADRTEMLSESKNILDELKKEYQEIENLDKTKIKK
UniProt Q9Y294, whole entry, looked up: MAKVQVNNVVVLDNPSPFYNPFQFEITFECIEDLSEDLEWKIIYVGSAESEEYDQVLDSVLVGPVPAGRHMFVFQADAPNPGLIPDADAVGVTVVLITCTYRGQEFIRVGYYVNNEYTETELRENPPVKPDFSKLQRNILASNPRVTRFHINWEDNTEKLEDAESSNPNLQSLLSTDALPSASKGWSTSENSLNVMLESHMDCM
UniProt Q12797: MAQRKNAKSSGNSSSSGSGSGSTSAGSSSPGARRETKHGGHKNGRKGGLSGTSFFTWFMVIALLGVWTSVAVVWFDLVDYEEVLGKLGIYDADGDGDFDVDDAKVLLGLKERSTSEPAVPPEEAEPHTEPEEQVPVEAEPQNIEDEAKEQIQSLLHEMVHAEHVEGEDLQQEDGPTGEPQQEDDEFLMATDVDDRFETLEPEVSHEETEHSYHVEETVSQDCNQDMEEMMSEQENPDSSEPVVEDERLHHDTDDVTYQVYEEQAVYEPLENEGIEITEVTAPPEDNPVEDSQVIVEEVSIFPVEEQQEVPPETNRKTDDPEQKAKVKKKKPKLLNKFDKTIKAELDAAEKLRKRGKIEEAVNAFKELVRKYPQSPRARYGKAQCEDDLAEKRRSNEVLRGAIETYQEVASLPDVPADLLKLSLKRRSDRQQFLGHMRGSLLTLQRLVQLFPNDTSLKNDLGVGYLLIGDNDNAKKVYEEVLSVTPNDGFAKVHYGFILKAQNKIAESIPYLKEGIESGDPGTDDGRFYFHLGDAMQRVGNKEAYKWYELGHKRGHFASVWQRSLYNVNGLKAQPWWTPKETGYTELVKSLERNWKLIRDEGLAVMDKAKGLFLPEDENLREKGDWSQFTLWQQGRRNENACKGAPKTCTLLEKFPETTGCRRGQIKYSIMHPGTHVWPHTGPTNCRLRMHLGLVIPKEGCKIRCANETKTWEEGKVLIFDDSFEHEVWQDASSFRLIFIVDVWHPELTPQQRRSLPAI
UniProt P36543, whole entry, looked up: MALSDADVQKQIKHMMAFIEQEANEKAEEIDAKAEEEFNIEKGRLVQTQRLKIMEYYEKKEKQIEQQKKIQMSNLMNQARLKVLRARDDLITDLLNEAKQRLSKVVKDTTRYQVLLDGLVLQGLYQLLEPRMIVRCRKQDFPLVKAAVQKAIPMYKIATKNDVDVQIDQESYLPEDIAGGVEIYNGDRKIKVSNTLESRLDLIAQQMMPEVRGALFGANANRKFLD
UniProt Q15041, whole entry, looked up: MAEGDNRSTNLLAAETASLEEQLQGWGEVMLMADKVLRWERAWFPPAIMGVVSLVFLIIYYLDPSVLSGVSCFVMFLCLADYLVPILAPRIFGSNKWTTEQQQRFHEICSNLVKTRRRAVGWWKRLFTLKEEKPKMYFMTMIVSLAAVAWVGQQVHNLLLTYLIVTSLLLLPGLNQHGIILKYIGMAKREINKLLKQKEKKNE
UniProt O95352: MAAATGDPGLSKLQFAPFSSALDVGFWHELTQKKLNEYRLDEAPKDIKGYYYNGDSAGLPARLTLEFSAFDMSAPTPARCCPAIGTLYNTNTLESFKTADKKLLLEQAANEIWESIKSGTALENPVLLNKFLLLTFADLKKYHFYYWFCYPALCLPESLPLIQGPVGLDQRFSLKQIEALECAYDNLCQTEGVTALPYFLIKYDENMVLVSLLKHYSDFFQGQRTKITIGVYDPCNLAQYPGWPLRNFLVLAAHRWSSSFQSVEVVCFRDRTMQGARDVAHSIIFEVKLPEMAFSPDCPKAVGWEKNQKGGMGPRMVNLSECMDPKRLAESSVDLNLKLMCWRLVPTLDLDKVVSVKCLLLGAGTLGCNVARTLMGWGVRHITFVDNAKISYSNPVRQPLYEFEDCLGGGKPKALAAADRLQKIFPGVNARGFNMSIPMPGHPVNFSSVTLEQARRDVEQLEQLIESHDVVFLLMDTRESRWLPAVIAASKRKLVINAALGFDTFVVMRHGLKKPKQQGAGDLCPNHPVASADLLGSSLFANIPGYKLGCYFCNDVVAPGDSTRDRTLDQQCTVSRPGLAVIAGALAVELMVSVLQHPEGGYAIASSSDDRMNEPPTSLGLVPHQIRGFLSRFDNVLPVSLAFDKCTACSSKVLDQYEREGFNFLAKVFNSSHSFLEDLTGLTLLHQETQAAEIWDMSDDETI
UniProt Q2TAZ0: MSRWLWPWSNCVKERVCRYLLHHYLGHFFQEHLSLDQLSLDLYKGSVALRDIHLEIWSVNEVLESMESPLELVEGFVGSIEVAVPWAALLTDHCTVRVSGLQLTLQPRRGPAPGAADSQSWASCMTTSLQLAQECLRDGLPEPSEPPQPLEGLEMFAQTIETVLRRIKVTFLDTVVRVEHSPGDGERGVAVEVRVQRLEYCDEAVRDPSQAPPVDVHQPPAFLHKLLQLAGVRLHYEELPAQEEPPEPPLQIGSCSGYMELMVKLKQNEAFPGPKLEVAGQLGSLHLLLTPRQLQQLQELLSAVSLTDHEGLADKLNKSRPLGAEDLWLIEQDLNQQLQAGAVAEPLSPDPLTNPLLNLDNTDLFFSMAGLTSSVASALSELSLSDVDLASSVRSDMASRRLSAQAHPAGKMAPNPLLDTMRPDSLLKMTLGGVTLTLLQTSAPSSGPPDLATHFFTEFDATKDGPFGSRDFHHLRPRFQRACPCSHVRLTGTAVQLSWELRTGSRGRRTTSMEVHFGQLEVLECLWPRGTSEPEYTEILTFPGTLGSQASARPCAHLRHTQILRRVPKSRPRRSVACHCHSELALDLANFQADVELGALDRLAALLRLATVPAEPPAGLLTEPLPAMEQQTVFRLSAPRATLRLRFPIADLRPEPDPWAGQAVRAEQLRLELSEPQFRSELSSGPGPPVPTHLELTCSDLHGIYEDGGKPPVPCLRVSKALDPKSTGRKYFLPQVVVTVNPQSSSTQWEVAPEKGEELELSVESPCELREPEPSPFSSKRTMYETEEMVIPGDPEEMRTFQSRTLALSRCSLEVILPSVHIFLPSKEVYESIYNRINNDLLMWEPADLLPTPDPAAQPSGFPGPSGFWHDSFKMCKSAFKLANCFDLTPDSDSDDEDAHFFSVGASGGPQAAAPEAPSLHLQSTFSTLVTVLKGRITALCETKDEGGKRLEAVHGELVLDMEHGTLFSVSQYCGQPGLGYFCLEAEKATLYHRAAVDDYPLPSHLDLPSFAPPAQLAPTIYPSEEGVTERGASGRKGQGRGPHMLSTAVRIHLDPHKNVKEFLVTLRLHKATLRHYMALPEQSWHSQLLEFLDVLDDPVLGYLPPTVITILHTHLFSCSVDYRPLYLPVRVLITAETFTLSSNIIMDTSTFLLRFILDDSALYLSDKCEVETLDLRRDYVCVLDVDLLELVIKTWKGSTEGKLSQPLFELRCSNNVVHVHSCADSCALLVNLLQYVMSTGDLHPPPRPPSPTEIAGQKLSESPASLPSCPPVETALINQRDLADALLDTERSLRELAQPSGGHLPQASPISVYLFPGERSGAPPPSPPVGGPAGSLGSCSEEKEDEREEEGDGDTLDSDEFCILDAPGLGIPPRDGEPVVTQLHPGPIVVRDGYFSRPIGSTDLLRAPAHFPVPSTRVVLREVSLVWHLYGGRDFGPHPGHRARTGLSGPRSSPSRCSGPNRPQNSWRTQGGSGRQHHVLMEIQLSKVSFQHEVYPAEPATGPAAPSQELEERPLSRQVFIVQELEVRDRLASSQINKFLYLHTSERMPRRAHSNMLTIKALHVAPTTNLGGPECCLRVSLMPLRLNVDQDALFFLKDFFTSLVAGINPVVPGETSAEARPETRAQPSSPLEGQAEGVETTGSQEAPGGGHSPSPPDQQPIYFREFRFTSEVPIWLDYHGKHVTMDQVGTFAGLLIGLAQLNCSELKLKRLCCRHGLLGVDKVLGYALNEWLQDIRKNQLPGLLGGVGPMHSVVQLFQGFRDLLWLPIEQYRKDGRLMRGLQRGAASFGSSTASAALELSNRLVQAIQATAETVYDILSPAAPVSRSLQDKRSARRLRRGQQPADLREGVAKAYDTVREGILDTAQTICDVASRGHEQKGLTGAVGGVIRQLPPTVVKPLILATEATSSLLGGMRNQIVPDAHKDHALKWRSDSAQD
UniProt O43681: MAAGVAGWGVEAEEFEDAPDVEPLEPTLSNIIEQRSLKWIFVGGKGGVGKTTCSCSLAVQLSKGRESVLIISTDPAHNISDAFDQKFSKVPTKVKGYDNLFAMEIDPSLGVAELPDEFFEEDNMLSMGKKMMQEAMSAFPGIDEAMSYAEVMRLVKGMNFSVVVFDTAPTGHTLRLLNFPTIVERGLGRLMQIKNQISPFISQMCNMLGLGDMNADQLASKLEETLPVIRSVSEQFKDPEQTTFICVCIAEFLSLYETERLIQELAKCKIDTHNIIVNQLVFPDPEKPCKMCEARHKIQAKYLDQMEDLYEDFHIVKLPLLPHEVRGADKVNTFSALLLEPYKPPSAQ
UniProt O75964: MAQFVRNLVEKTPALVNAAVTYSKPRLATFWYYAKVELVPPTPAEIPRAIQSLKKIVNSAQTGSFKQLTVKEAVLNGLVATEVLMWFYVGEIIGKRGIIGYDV

Key:
Experiment in all cases: log2 fold change, soluble protein after heating vs DMSO (PISA); higher = thermal stabilisation; K562 cells, 10 uM, 30 min; active = over 0.2 and 3.5 SD of the protein, either way, in both replicates (recomputed)
[1] = compound: C#Cc1cccc(Nc2ncnc3cc(OCCOC)c(OCCOC)cc23)c1 [erlotinib]
Method in brief: (§1)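 Aliquots of K562 cells (2×10^6 cells/mL) treated with 10 μM compound for 30 min were heated for 3 min over 48°C-58°C. After pooling and extraction in PBS with 0.5% NP-40 at 4°C, soluble protein from a 21,000xg, 90 min spin was quantified by TMTpro 16plex LC-MS/MS with channel sums equalised. Thermal stability is expressed against control samples, from duplicates, as a log2 fold change.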

[2] = compound: C/C(=N\NC(=O)C1=CC(=CC=C1)S(=O)(=O)N2CCOCC2)/C3=C(C=CC(=C3)Cl)O
Method in brief: as §1

[3] = compound: C1=CC(=C(C=C1Cl)C2=NC3=NC=CN=C3C(=N2)NC4=CC=NC=C4)F
Method in brief: as §1

[4] = compound: C1=CC(=CC=C1C2=NC3=C(N2)C=C(C=C3)C(=O)N)OC4=CC=C(C=C4)Cl
Method in brief: as §1

[5] = compound: C1=CC2=C(C=CC(=C2)/C=C\3/C(=O)NC(=NCC4=CC=CS4)S3)N=C1
Method in brief: as §1

[6] = compound: C1=CC2=NC=CN=C2C=C1/C=C/3\C(=O)NC(=O)S3
Method in brief: as §1

[7] = compound: C1=CC=C(C=C1)C2=NC(=C(N2)C3=CC=NC=C3)C4=CC(=C(C=C4)Cl)O
Method in brief: as §1

[8] = compound: C1=CC=C2C(=C1)C3=NNC4=CC=CC(=C43)C2=O
Method in brief: as §1

[9] = compound: C1CCN(C1)C(=O)NC2=CC=CC(=C2)NC3=NC=C(C(=N3)NCCC4=CN=CN4)Br
Method in brief: as §1

[10] = compound: C1CN(CCC1(CC2=CC=C(C=C2)Cl)N)C3=NC=NC4=C3C=CN4
Method in brief: as §1

[11] = compound: C1COCCN1CCN2C3=CC=CC=C3N=C2NC(=O)C4=CC(=CC=C4)[N+](=O)[O-] [IRAK-1-4 Inhibitor I]
Method in brief: as §1

[12] = compound: C=CC(=O)N1CCC[C@@H](n2nc(-c3ccc(Oc4ccccc4)cc3)c3c(N)ncnc32)C1 [ibrutinib]
Method in brief: as §1

[13] = compound: CC(=O)c1cnc2ccc(-c3cc(Cl)c(O)c(Cl)c3)nc2c1N[C@H]1CC[C@H](CN(C)C)CC1
Method in brief: as §1

[14] = compound: CC(C)(C)Cn1c(N)nc2ccc(-c3[nH]c(C(C)(C)C)nc3-c3ccc(F)cc3)nc21 [ralimetinib]
Method in brief: as §1

[15] = compound: CC(C)(O)CC(=O)NCCn1ccc2ncnc(Nc3ccc(Oc4cccc(C(F)(F)F)c4)c(Cl)c3)c21
Method in brief: as §1

[16] = compound: CC(C)C1=C2N=C(C=C(N2N=C1)NCC3=CC=CC=C3)NCCCCCCN
Method in brief: as §1

[17] = compound: CC(C)C[C@@H](C=O)NC(=O)[C@H](CC(C)C)NC(=O)[C@H](CC(C)C)NC(=O)OCc1ccccc1
Method in brief: as §1

[18] = compound: CC(C)N(C[C@H]1O[C@@H](n2cnc3c(N)ncnc32)[C@H](O)[C@@H]1O)[C@H]1C[C@@H](CCc2nc3cc(C(C)(C)C)ccc3[nH]2)C1 [pinometostat]
Method in brief: as §1

[19] = compound: CC1=C(C(CC(=O)N1)C2=CC=C(C=C2)C(F)(F)F)C(=O)NC3=C(C=C4C(=C3)C=NN4)F
Method in brief: as §1

[20] = compound: CC1=C(C2=C(C=C1)C(=O)C3=CC=CC=C3N2CCCN)C
Method in brief: as §1

Measured: log2 fold change

ATF2 (UniProt P15336)
inactive: [1] -0.031 | [2] -0.194 | [3] 0.098 | [4] -0.027 | [5] 0.055 | [6] 0.025 | [7] 0.018 | [8] -0.005 | [9] -0.066 | [10] -0.012 | [11] 0.107 | [12] 0.036 | [13] 0.036 | [14] 0.075 | [15] -0.119 | [16] 0.093 | [17] -0.021 | [18] 0.145 | [19] 0.09 | [20] 0.288

ARIH2 (UniProt O95376)
inactive: [1] -0.015 | [2] -0.059 | [3] 0.053 | [4] 0.006 | [5] -0.089 | [6] 0.044 | [7] 0.015 | [8] -0.062 | [9] -0.018 | [10] 0.051 | [11] 0.032 | [12] -0.01 | [13] 0.058 | [14] -0.014 | [15] -0.01 | [16] 0.021 | [17] -0.036 | [18] -0.066 | [19] 0.019 | [20] -0.002

ATP5F1B (UniProt P06576)
inactive: [1] -0.01 | [2] -0.01 | [3] -0.001 | [4] 0.004 | [5] 0.017 | [6] -0.003 | [7] -0.026 | [8] 0.007 | [9] 0.01 | [10] 0.029 | [11] 0.028 | [12] 0.016 | [13] 0.016 | [14] -0.024 | [15] 0.023 | [16] 0.042 | [17] 0.022 | [18] -0.009 | [19] 0.018 | [20] 0.001

ATG5 (UniProt Q9H1Y0)
inactive: [1] -0.005 | [2] 0.009 | [3] 0.06 | [4] 0.047 | [5] 0.017 | [6] 0.032 | [7] 0.1 | [8] 0.07 | [9] -0.035 | [10] 0.027 | [11] 0.035 | [12] 0.035 | [13] 0.02 | [14] 0.009 | [15] -0.014 | [16] -0.07 | [17] -0.006 | [18] 0.014 | [19] -0.056 | [20] 0.026

ASDURF (UniProt L0R819)
inactive: [1] -0.028 | [2] 0.013 | [3] -0.08 | [4] 0.032 | [5] -0.022 | [6] 0 | [7] -0.103 | [8] -0.056 | [9] 0.013 | [10] 0.014 | [11] 0.036 | [12] 0.015 | [13] 0.072 | [14] 0.005 | [15] 0.023 | [16] 0.07 | [17] -0.001 | [18] -0.035 | [19] 0.04 | [20] -0.039

ASF1A (UniProt Q9Y294)
inactive: [1] 0.055 | [2] 0.007 | [3] 0.143 | [4] 0.004 | [5] -0.009 | [6] 0.048 | [7] -0.001 | [8] -0.015 | [9] 0.034 | [10] -0.032 | [11] 0.052 | [12] -0.037 | [13] -0.02 | [14] -0.051 | [15] -0.051 | [16] -0.028 | [17] 0.024 | [18] -0.052 | [19] -0.008 | [20] 0.041

ASPH (UniProt Q12797)
inactive: [1] -0.021 | [2] 0.004 | [3] -0.176 | [4] 0.036 | [5] -0.069 | [6] 0.044 | [7] -0.056 | [8] 0.004 | [9] -0.017 | [10] -0.072 | [11] -0.105 | [12] -0.017 | [13] 0.048 | [14] 0.057 | [15] 0.023 | [16] -0.02 | [17] 0.044 | [18] 0.056 | [19] 0.026 | [20] -0.018

ARPC1B (UniProt O15143)
inactive: [1] -0.018 | [2] 0.104 | [3] 0.052 | [4] -0.045 | [5] -0.143 | [6] -0.018 | [7] 0.099 | [8] 0.041 | [9] -0.048 | [10] 0.028 | [11] -0.035 | [12] 0.023 | [13] 0.087 | [14] -0.008 | [15] 0.021 | [16] 0.093 | [17] 0 | [18] -0.053 | [19] 0.003 | [20] 0.007

ATP6V1E1 (UniProt P36543)
inactive: [1] 0.019 | [2] 0.029 | [3] -0.073 | [4] -0.003 | [5] 0.034 | [6] 0.016 | [7] -0.086 | [8] 0.042 | [9] -0.01 | [10] -0.102 | [11] -0.007 | [12] -0.008 | [13] -0.071 | [14] 0.046 | [15] 0.017 | [16] -0.069 | [17] 0.024 | [18] 0.007 | [19] -0.007 | [20] 0.109

ARL6IP1 (UniProt Q15041)
inactive: [1] 0.071 | [2] -0.044 | [3] 0.064 | [4] -0.064 | [5] -0.075 | [6] 0.017 | [7] -0.002 | [8] 0.005 | [9] -0.029 | [10] 0.032 | [11] -0.033 | [12] 0.062 | [13] 0.058 | [14] -0.052 | [15] -0.034 | [16] 0.079 | [17] -0.072 | [18] -0.029 | [19] 0.058 | [20] -0.004

ATG7 (UniProt O95352)
inactive: [1] -0.022 | [2] 0.09 | [3] 0.018 | [4] 0.02 | [5] -0.004 | [6] -0.002 | [7] 0.052 | [8] 0.054 | [9] 0.006 | [10] 0.016 | [11] -0.001 | [12] -0.022 | [13] 0.007 | [14] 0.01 | [15] -0.048 | [16] -0.043 | [17] -0.021 | [18] 0.013 | [19] -0.006 | [20] -0.014

ARPC2 (UniProt O15144)
inactive: [1] -0.019 | [2] 0.003 | [3] 0.056 | [4] -0.026 | [5] -0.004 | [6] 0.021 | [7] 0.04 | [8] -0.002 | [9] -0.003 | [10] 0.005 | [11] 0.051 | [12] -0.002 | [13] 0.024 | [14] -0.043 | [15] 0 | [16] 0.074 | [17] -0.018 | [18] -0.02 | [19] -0.01 | [20] 0.04

Reprinted at random: two entries already listed.
ATP6V1E1 (UniProt P36543)
inactive: [1] 0.019 | [2] 0.029 | [3] -0.073 | [4] -0.003 | [5] 0.034 | [6] 0.016 | [7] -0.086 | [8] 0.042 | [9] -0.01 | [10] -0.102 | [11] -0.007 | [12] -0.008 | [13] -0.071 | [14] 0.046 | [15] 0.017 | [16] -0.069 | [17] 0.024 | [18] 0.007 | [19] -0.007 | [20] 0.109

ATG7 (UniProt O95352)
inactive: [1] -0.022 | [2] 0.09 | [3] 0.018 | [4] 0.02 | [5] -0.004 | [6] -0.002 | [7] 0.052 | [8] 0.054 | [9] 0.006 | [10] 0.016 | [11] -0.001 | [12] -0.022 | [13] 0.007 | [14] 0.01 | [15] -0.048 | [16] -0.043 | [17] -0.021 | [18] 0.013 | [19] -0.006 | [20] -0.014

Remaining list, next part:

ATG2A isoform 3 (UniProt Q2TAZ0)
inactive: [1] -0.003 | [2] 0.032 | [3] 0.059 | [4] 0.014 | [5] 0.062 | [6] 0.011 | [7] 0.009 | [8] -0.037 | [9] 0.035 | [10] 0.088 | [11] 0.047 | [12] -0.018 | [13] -0.023 | [14] -0.017 | [15] -0.046 | [16] 0.01 | [17] 0.031 | [18] 0.028 | [19] 0.017 | [20] 0.056

ASNA1 (UniProt O43681)
inactive: [1] -0.05 | [2] 0.022 | [3] 0.039 | [4] -0.01 | [5] -0.006 | [6] 0.049 | [7] -0.01 | [8] 0.003 | [9] 0.01 | [10] -0.007 | [11] -0.037 | [12] 0.015 | [13] 0.055 | [14] -0.043 | [15] -0.041 | [16] 0.01 | [17] -0.038 | [18] -0.05 | [19] -0.022 | [20] -0.008

ATP5MG (UniProt O75964)
inactive: [1] -0.021 | [2] 0.053 | [3] 0.137 | [4] 0.031 | [5] 0.179 | [6] -0.009 | [7] -0.109 | [8] -0.054 | [9] -0.037 | [10] 0.047 | [11] 0 | [12] 0.03 | [13] 0.038 | [14] -0.18 | [15] -0.016 | [16] 0.042 | [17] 0.029 | [18] 0.052 | [19] 0.009 | [20] 0.069
